Laboratory results reported in PubChem BioAssay AID192 (DTP/NCI, 2004).
The list does not hold the whole screen: it gathers tests that were run many times, whatever their T/C, doses with no T/C, and many T/C values between a quarter and a half above the control. Other doses and runs of a compound stand elsewhere. T/C gives the treated animals as a percentage of the vehicle group. Some doses have a count of surviving animals in place of a T/C: the source files T/C as zero there, which appears to mark a toxic dose or a test without result, not a measured value. Some doses without a T/C left all or most animals alive at the check, yet need not have been tolerated: the source hardly ever lists a survival T/C far under the control, and the zero likely stands for such cases as well. Survivors were counted at the toxicity check, usually on the fifth day, unless a day is given; later deaths do not show. Schedule codes are those of the source, taken here to give the interval after Q, in days (D) or hours (H), and the number of doses after X. Some entries were tested several times; the values are given in rising order. Where survival is the endpoint, the PubChem record calls one and a half times the control and up active, and a quarter to a half above the control has no call in these data; cut-offs in other NCI protocols can differ. Additions like (4×) say how often a value occurs here. Some T/C values carry the count of animals alive at the toxicity check (mostly the fifth day); without a count, all were alive then.

Tested on: BDF1 mice, B16 melanoma ip, median survival T/C
Experiment: NCI In Vivo Anticancer Drug Screen. Data for tumor model B16 Melanoma (intraperitoneal) in B6D2F1 (BDF1) mice
Conditions: T/C endpoint: median survival time, higher T/C = longer survival
In short: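 Survival or tumor size is measured after treatment of tumor-bearing mice and normalised to the vehicle-treated control group.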

[1] = dose: 3.0 mg/kg/injection, schedule: Q01DX009 (ip), vehicle: saline

COc1cccc2c1C(=O)c1c(O)c3c(c(O)c1C2=O)C[C@@](O)(C(=O)CO)C[C@@H]3OC1CC(N)C(O)C(C)O1 (stereo not given in full)
T/C (dose: 1.0 mg/kg/injection, schedule: Q01DX009 (ip), vehicle: saline, evaluated on day 45): 219 % of control | T/C (dose: 1.0 mg/kg/injection, schedule: Q01DX009 (ip), vehicle: saline, evaluated on day 60): 151, 167, 187, 190, 213 (2×), 215 [9 of 10 alive], 244, 250, 260, 262, 267, 283, 288, 298, 301, 303, 309, 313, 322, 376 % of control | T/C (dose: 1.0 mg/kg/injection, schedule: Q01DX009 (ip), vehicle: saline, evaluated on day 90): 434 and 491 % of control | T/C (dose: 1.0 mg/kg/injection, schedule: Q04DX003 (ip), vehicle: saline, evaluated on day 8): 130 % of control | T/C (dose: 1.0 mg/kg/injection, schedule: Q04DX003 (ip), vehicle: saline, evaluated on day 60): 130 [9 of 10 alive], 144 [9 of 10 alive], 226, 240, 260 % of control | T/C (dose: 1.5 mg/kg/injection, schedule: Q01DX001 (ip), vehicle: water, evaluated on day 45): 222 % of control | T/C (dose: 1.5 mg/kg/injection, schedule: Q01DX001 (ip), vehicle: water, evaluated on day 60): 180, 190, 287 % of control [9 of 10 alive] | survivor count (dose: 1.5 mg/kg/injection, schedule: Q03HX008 (ip), vehicle: saline): 10 of 10 | T/C (dose: 1.73 mg/kg/injection, schedule: Q04DX003 (ip), vehicle: water, evaluated on day 60): 146, 149, 209, 232 % of control | T/C (dose: 1.73 mg/kg/injection, schedule: Q04DX003 (ip), vehicle: water, evaluated on day 75): 127 and 166 % of control | T/C (dose: 1.9 mg/kg/injection, schedule: Q01DX001 (ip), vehicle: water): 125 % of control | T/C (dose: 2.0 mg/kg/injection, schedule: Q01DX001 (ip), vehicle: saline, evaluated on day 5): 177 and 216 % of control | T/C (dose: 2.0 mg/kg/injection, schedule: Q01DX001 (ip), vehicle: saline, evaluated on day 45): 219 % of control | T/C (dose: 2.0 mg/kg/injection, schedule: Q01DX001 (ip), vehicle: saline, evaluated on day 60): 178 % of control | T/C (dose: 2.0 mg/kg/injection, schedule: Q01DX001 (ip), vehicle: water, evaluated on day 40): 122 % of control | T/C (dose: 2.0 mg/kg/injection, schedule: Q01DX001 (ip), vehicle: water, evaluated on day 45): 112, 122, 169 % of control | T/C (dose: 2.0 mg/kg/injection, schedule: Q01DX001 (ip), vehicle: water, evaluated on day 50): 144 % of control | T/C (dose: 2.0 mg/kg/injection, schedule: Q01DX001 (ip), vehicle: water, evaluated on day 60): 113, 153, 158, 170, 173, 175, 177, 179 (3×), 183, 185, 188, 192, 196 (2×), 197, 199, 205, 210, 213, 219 (2×), 222, 226, 232 (2×), 235, 251, 252, 255, 281, 284, 288, 289, 293, 300 % of control | T/C (dose: 2.0 mg/kg/injection, schedule: Q01DX009 (ip), vehicle: saline, evaluated on day 5): 185, 217, 398 % of control | T/C (dose: 2.0 mg/kg/injection, schedule: Q01DX009 (ip), vehicle: saline, evaluated on day 45): 219 % of control | T/C (dose: 2.0 mg/kg/injection, schedule: Q01DX009 (ip), vehicle: saline, evaluated on day 60): 125 [9 of 10 alive], 164, 172 [9 of 10 alive], 173, 209, 212, 251, 252, 262, 282, 288, 298, 300, 303, 315 (2×), 321 % of control | T/C (dose: 2.0 mg/kg/injection, schedule: Q01DX009 (ip), vehicle: saline, evaluated on day 90): 185 and 398 % of control | survivor count (dose: 2.0 mg/kg/injection, schedule: Q01DX009 (ip), vehicle: saline): 10 of 10 | T/C (dose: 2.0 mg/kg/injection, schedule: Q04DX003 (ip), vehicle: saline, evaluated on day 8): 170 % of control | T/C (dose: 2.0 mg/kg/injection, schedule: Q04DX003 (ip), vehicle: saline, evaluated on day 60): 180, 188, 210, 222, 272 % of control | T/C (dose: 2.88 mg/kg/injection, schedule: Q04DX003 (ip), vehicle: water, evaluated on day 60): 151, 161, 245, 301 % of control | T/C (dose: 2.88 mg/kg/injection, schedule: Q04DX003 (ip), vehicle: water, evaluated on day 75): 138 and 245 % of control | T/C (dose: 2.9 mg/kg/injection, schedule: Q01DX001 (ip), vehicle: saline): 129 % of control (2×) | T/C (dose: 3.0 mg/kg/injection, schedule: Q01DX001 (ip), vehicle: water, evaluated on day 45): 234 % of control | T/C (dose: 3.0 mg/kg/injection, schedule: Q01DX001 (ip), vehicle: water, evaluated on day 60): 180, 269, 287 % of control | T/C [1]: 131 % of control | survivor count [1]: 10 of 10 | survivor count (dose: 3.0 mg/kg/injection, schedule: Q03HX008 (ip), vehicle: saline): 8 of 10 and 10 of 10 | T/C (dose: 3.6 mg/kg/injection, schedule: Q01DX001 (ip), vehicle: water, evaluated on day 60): 124 and 227 % of control | T/C (dose: 3.6 mg/kg/injection, schedule: Q01DX001 (ip), vehicle: water, evaluated on day 65): 129 and 176 % of control | T/C (dose: 3.6 mg/kg/injection, schedule: Q01DX001 (ip), vehicle: water, evaluated on day 75): 117 and 241 % of control | T/C (dose: 3.8 mg/kg/injection, schedule: Q01DX001 (ip), vehicle: water): 142 % of control [9 of 10 alive] | T/C (dose: 4.0 mg/kg/injection, schedule: Q01DX001 (ip), vehicle: saline, evaluated on day 1): 220 % of control | T/C (dose: 4.0 mg/kg/injection, schedule: Q01DX001 (ip), vehicle: saline, evaluated on day 5): 271 % of control | T/C (dose: 4.0 mg/kg/injection, schedule: Q01DX001 (ip), vehicle: saline, evaluated on day 6): 220 % of control
